The other results are listed elsewhere or left out.
Assays:
Assay in all cases: glycan array binding signal (z-score within array); higher = stronger binding
Conditions in all cases: glycan notation: IUPAC condensed, linker removed
[1] = molecular target: Neu5Ac(a2-3)Gal(b1-3)GlcNAc(b1-2)Man
Outline: (§1)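 The binding signal is a Z-score computed within each array. Data were drawn from 3228 arrays in the Consortium for Functional Glycomics database, restricted to those with a known protein sequence. Scores were averaged over arrays of the same protein sequence at different concentrations or buffers, and over linkers, and negative values can be taken as non-binding.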

[2] = molecular target: Neu5Ac(a2-3)Gal(b1-3)GlcNAc(b1-2)Man(a1-3)[GlcNAc(b1-4)][Neu5Ac(a2-3)Gal(b1-3)GlcNAc(b1-2)Man(a1-6)]Man(b1-4)GlcNAc(b1-4)GlcNAc
Outline: as §1

[3] = molecular target: Neu5Ac(a2-3)Gal(b1-3)GlcNAc(b1-2)Man(a1-3)[Neu5Ac(a2-3)Gal(b1-3)GlcNAc(b1-2)Man(a1-6)]Man(b1-4)GlcNAc(b1-4)GlcNAc
Outline: as §1

[4] = molecular target: Neu5Ac(a2-3)Gal(b1-3)GlcNAc(b1-2)[Neu5Ac(a2-3)Gal(b1-3)GlcNAc(b1-4)]Man(a1-6)[Neu5Ac(a2-3)Gal(b1-3)GlcNAc(b1-2)Man(a1-3)]Man(b1-4)GlcNAc(b1-4)GlcNAc
Outline: as §1

[5] = molecular target: Neu5Ac(a2-3)Gal(b1-3)GlcNAc(b1-3)Gal(b1-3)GlcNAc
Outline: as §1

[6] = molecular target: Neu5Ac(a2-3)Gal(b1-3)GlcNAc(b1-3)Gal(b1-4)GlcNAc
Outline: as §1

[7] = molecular target: Neu5Ac(a2-3)Gal(b1-3)GlcNAc(b1-3)GalNAc
Outline: as §1

[8] = molecular target: Neu5Ac(a2-3)Gal(b1-3)GlcNAc(b1-6)GalNAc
Outline: as §1

[9] = molecular target: Neu5Ac(a2-3)Gal(b1-3)GlcNAc6S
Outline: as §1

[10] = molecular target: Neu5Ac(a2-3)Gal(b1-3)[Fuc(a1-4)]GlcNAc
Outline: as §1

[11] = molecular target: Neu5Ac(a2-3)Gal(b1-3)[Fuc(a1-4)]GlcNAc(b1-3)Gal(b1-3)[Fuc(a1-4)]GlcNAc
Outline: as §1

[12] = molecular target: Neu5Ac(a2-3)Gal(b1-3)[Fuc(a1-4)]GlcNAc(b1-3)Gal(b1-4)[Fuc(a1-3)]GlcNAc
Outline: as §1

[13] = molecular target: Neu5Ac(a2-3)Gal(b1-3)[GlcNAc(b1-6)]GalNAc
Outline: as §1

[14] = molecular target: Neu5Ac(a2-3)Gal(b1-3)[Neu5Ac(a2-6)]GalNAc
Outline: as §1

[15] = molecular target: Neu5Ac(a2-3)Gal(b1-3)[Neu5Ac(a2-6)]GlcNAc(b1-3)[Fuc(a1-3)[Gal(b1-4)]GlcNAc(b1-6)]Gal(b1-4)Glc
Outline: as §1

[16] = molecular target: Neu5Ac(a2-3)Gal(b1-3)]Neu5Ac(a2-3)Gal(b1-4)]GlcNAc
Outline: as §1

Neu5Ac(a2-3)Gal(b1-4)Glc = molecular target: Neu5Ac(a2-3)Gal(b1-4)Glc
Outline: as §1

[17] = molecular target: Neu5Ac(a2-3)Gal(b1-4)GlcNAc
Outline: as §1

[18] = molecular target: Neu5Ac(a2-3)Gal(b1-4)GlcNAc(b1-2)Man
Outline: as §1

[19] = molecular target: Neu5Ac(a2-3)Gal(b1-4)GlcNAc(b1-2)Man(a1-3)[GlcNAc(b1-4)][Neu5Ac(a2-3)Gal(b1-4)GlcNAc(b1-2)Man(a1-6)]Man(b1-4)GlcNAc(b1-4)GlcNAc
Outline: as §1

[20] = molecular target: Neu5Ac(a2-3)Gal(b1-4)GlcNAc(b1-2)Man(a1-3)[Neu5Ac(a2-3)Gal(b1-4)GlcNAc(b1-2)Man(a1-6)]Man(b1-4)GlcNAc(b1-4)GlcNAc
Outline: as §1

[21] = molecular target: Neu5Ac(a2-3)Gal(b1-4)GlcNAc(b1-2)Man(a1-3)[Neu5Ac(a2-3)Gal(b1-4)GlcNAc(b1-2)Man(a1-6)]Man(b1-4)GlcNAc(b1-4)[Fuc(a1-6)]GlcNAc
Outline: as §1

[22] = molecular target: Neu5Ac(a2-3)Gal(b1-4)GlcNAc(b1-2)Man(a1-3)[Neu5Ac(a2-6)Gal(b1-4)GlcNAc(b1-2)Man(a1-6)]Man(b1-4)GlcNAc(b1-4)GlcNAc
Outline: as §1

[23] = molecular target: Neu5Ac(a2-3)Gal(b1-4)GlcNAc(b1-2)[Neu5Ac(a2-3)Gal(b1-4)GlcNAc(b1-4)]Man(a1-3)[GlcNAc(b1-4)][Neu5Ac(a2-3)Gal(b1-4)GlcNAc(b1-2)[Neu5Ac(a2-3)Gal(b1-4)GlcNAc(b1-6)]Man(a1-6)]Man(b1-4)GlcNAc(b1-4)GlcNAc
Outline: as §1

[24] = molecular target: Neu5Ac(a2-3)Gal(b1-4)GlcNAc(b1-2)[Neu5Ac(a2-3)Gal(b1-4)GlcNAc(b1-4)]Man(a1-3)[GlcNAc(b1-4)][Neu5Ac(a2-3)Gal(b1-4)GlcNAc(b1-4)Man(a1-6)]Man(b1-4)GlcNAc(b1-4)GlcNAc
Outline: as §1

[25] = molecular target: Neu5Ac(a2-3)Gal(b1-4)GlcNAc(b1-2)[Neu5Ac(a2-3)Gal(b1-4)GlcNAc(b1-6)]Man(a1-6)[Neu5Ac(a2-3)Gal(b1-4)GlcNAc(b1-2)Man(a1-3)][GlcNAc(b1-4)]Man(b1-4)GlcNAc(b1-4)GlcNAc
Outline: as §1

[26] = molecular target: Neu5Ac(a2-3)Gal(b1-4)GlcNAc(b1-3)Gal
Outline: as §1

[27] = molecular target: Neu5Ac(a2-3)Gal(b1-4)GlcNAc(b1-3)Gal(b1-3)GlcNAc
Outline: as §1

[28] = molecular target: Neu5Ac(a2-3)Gal(b1-4)GlcNAc(b1-3)Gal(b1-4)GlcNAc
Outline: as §1

[29] = molecular target: Neu5Ac(a2-3)Gal(b1-4)GlcNAc(b1-3)Gal(b1-4)GlcNAc(b1-2)Man(a1-3)[Neu5Ac(a2-3)Gal(b1-4)GlcNAc(b1-3)Gal(b1-4)GlcNAc(b1-2)Man(a1-6)]Man(b1-4)GlcNAc(b1-4)GlcNAc
Outline: as §1

[30] = molecular target: Neu5Ac(a2-3)Gal(b1-4)GlcNAc(b1-3)Gal(b1-4)GlcNAc(b1-3)Gal(b1-4)GlcNAc
Outline: as §1

[31] = molecular target: Neu5Ac(a2-3)Gal(b1-4)GlcNAc(b1-3)Gal(b1-4)GlcNAc(b1-3)Gal(b1-4)GlcNAc(b1-2)Man(a1-3)[Neu5Ac(a2-3)Gal(b1-4)GlcNAc(b1-3)Gal(b1-4)GlcNAc(b1-3)Gal(b1-4)GlcNAc(b1-2)Man(a1-6)]GalNAc
Outline: as §1

[32] = molecular target: Neu5Ac(a2-3)Gal(b1-4)GlcNAc(b1-3)Gal(b1-4)GlcNAc(b1-3)GalNAc
Outline: as §1

[33] = molecular target: Neu5Ac(a2-3)Gal(b1-4)GlcNAc(b1-3)Gal(b1-4)GlcNAc(b1-3)[Neu5Ac(a2-3)Gal(b1-4)GlcNAc(b1-3)Gal(b1-4)GlcNAc(b1-6)]GalNAc
Outline: as §1

[34] = molecular target: Neu5Ac(a2-3)Gal(b1-4)GlcNAc(b1-3)Gal(b1-4)GlcNAc(b1-6)[Gal(b1-3)]GalNAc
Outline: as §1

[35] = molecular target: Neu5Ac(a2-3)Gal(b1-4)GlcNAc(b1-3)Gal(b1-4)[Fuc(a1-3)]GlcNAc
Outline: as §1

[36] = molecular target: Neu5Ac(a2-3)Gal(b1-4)GlcNAc(b1-3)GalNAc
Outline: as §1

[37] = molecular target: Neu5Ac(a2-3)Gal(b1-4)GlcNAc(b1-3)[Neu5Ac(a2-3)Gal(b1-4)GlcNAc(b1-6)]GalNAc
Outline: as §1

B1: SJCP1084 (Schistosoma japonicum) (protein)
chain: MRIINLVIISTALLLINLLQTKSQANGEDTKNGTPDDPGLTKSTELKVEVQALLKDKKTNMRVKWNENLLDNTKPEYHNLRDEACELLLQIVRSVVPLSQDDGECKDVTFTKYVVGTKDGAVNVKLTITFKDSVAINQKPMDLKLKLENDFKNLQSESTLKATKPTFTVKVEKRLIPISKPQTTPPTTAKNDASKENVGDIGGEDSTVPTAAPATAASANEEKDEGDKDNKDSQHPNVLTSNVNDRNLIIALVALMILAIGVALTAAVKQR
[1]
  glycan array binding signal (z-score): -0.083
[2]
  glycan array binding signal (z-score): -0.628
[3]
  glycan array binding signal (z-score): -0.009
[4]
  glycan array binding signal (z-score): -0.197
[5]
  glycan array binding signal (z-score): 0.24
[6]
  glycan array binding signal (z-score): 0.519
[7]
  glycan array binding signal (z-score): -1.48
[8]
  glycan array binding signal (z-score): 0.08
[9]
  glycan array binding signal (z-score): 0.978
[10]
  glycan array binding signal (z-score): 1.36
[11]
  glycan array binding signal (z-score): -0.405
[12]
  glycan array binding signal (z-score): 0.148
[13]
  glycan array binding signal (z-score): -0.163
[14]
  glycan array binding signal (z-score): -0.036
[15]
  glycan array binding signal (z-score): -0.152
[16]
  glycan array binding signal (z-score): 1.15
Neu5Ac(a2-3)Gal(b1-4)Glc
  glycan array binding signal (z-score): -0.493
[17]
  glycan array binding signal (z-score): -0.092
[18]
  glycan array binding signal (z-score): 0.272
[19]
  glycan array binding signal (z-score): 0.34
[20]
  glycan array binding signal (z-score): 0.105
[21]
  glycan array binding signal (z-score): 0.047
[22]
  glycan array binding signal (z-score): -0.163
[23]
  glycan array binding signal (z-score): -0.667
[24]
  glycan array binding signal (z-score): -0.787
[25]
  glycan array binding signal (z-score): 0.321
[26]
  glycan array binding signal (z-score): 0.968
[27]
  glycan array binding signal (z-score): -0.757
[28]
  glycan array binding signal (z-score): 0.873
[29]
  glycan array binding signal (z-score): -0.701
[30]
  glycan array binding signal (z-score): -0.199
[31]
  glycan array binding signal (z-score): 0.289
[32]
  glycan array binding signal (z-score): 0.065
[33]
  glycan array binding signal (z-score): -0.2
[34]
  glycan array binding signal (z-score): 0.254
[35]
  glycan array binding signal (z-score): -0.263
[36]
  glycan array binding signal (z-score): -0.729
[37]
  glycan array binding signal (z-score): -0.378

Source: the supplement of paper PMC8728848
